Reference: PubChem BioAssay AID1487 (National Center for Advancing Translational Sciences (NCATS), 2009)
The other results are listed elsewhere or left out. The main result of the screen is listed elsewhere. These columns were measured beside it and carry no call. Compounds called inactive in the main read-out are mostly missing here. Words in brackets tell the shape of the fitted curve; partial curves, single points and poor fits give uncertain potencies.

Assay: qHTS Assay for Modulators of Lamin A Splicing
Conditions: HeLa LMNA splicing GFP/RFP minigene ratio, 48 h
How it was run: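 S3 HeLa stable clones carrying a lamin A-EGFP splicing minigene plus DsRed2 were seeded at 600 cells/well in Opti-MEM with 2% FBS, pin-dosed and incubated 48 h at 37°C. Acumen cytometry (488 nm) gave the GFP/RFP total-intensity ratio.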

[1] = measured here: GFP splicing reporter channel
[2] = measured here: RFP viability control channel

## Fc1ccc(NCc2nnc(SCc3nnc(-c4ccccc4)o3)n2Cc2ccccc2)cc1
[1]
  AC50: 14.1 µM [rising, single point]
[2]
  AC50: 25.1 µM [rising, single point]

## COc1cc(-c2cc(C(=O)Nc3nc4ccccc4s3)c3ccccc3n2)cc(OC)c1OC
[1]
  AC50: 11.2 µM [rising, partial curve, poor fit]
[2]
  AC50: 11.2 µM [rising, partial curve]

## O=C(CSc1nnnn1-c1cccc2c1CCCC2)N1CCOCC1
[1]
  AC50: 14.1 µM [rising, partial curve]
[2]
  AC50: 11.2 µM [rising, partial curve]

## COc1ccc(-n2c(C)cc(C(=O)CN3C(=O)NC4(CCCc5sccc54)C3=O)c2C)cc1 (centres undefined)
[1]
  AC50: 11.2 µM [rising, partial curve]
[2]
  AC50: 14.1 µM [rising, partial curve]

## CC(C)(C)c1ccc(C(=O)NCc2cccnc2)cc1
[1]
  AC50: 14.1 µM [rising, single point]
[2]
  AC50: 35.5 µM [rising, single point]

## Cc1ccc(C(=O)N(CC(=O)NC2CCCC2)c2ccc3c(c2)OCCO3)s1
[1]
  AC50: 0.0794 µM [falling, full curve, poor fit]
[2]
  AC50: 0.0891 µM [falling, full curve, poor fit]

## CC1CCCN(C(=S)Nc2ccc3nc4n(c(=O)c3c2)CCCCC4)C1 (centres undefined)
[2]
  AC50: 35.5 µM [rising, single point]

## CCn1cc2c(n1)-c1c(oc(C(=O)Nc3cccc(C)c3C)c1C)CC2
[2]
  AC50: 2 µM [rising, full curve, poor fit]

## C=CCn1c(SCC(=O)Nc2ccccc2CC)nnc1-c1ccncc1
[2]
  AC50: 3.55 µM [rising, single point]

## COC(=O)c1ccc(NC(=O)CSc2nc3cccnc3n2C)cc1
[2]
  AC50: 25.1 µM [rising, single point]

## CCCCOc1ccc(CNC(=S)N/N=C/c2ccc(OC)c(OC)c2)cc1
[2]
  AC50: 11.2 µM [rising, partial curve, poor fit]

## Cc1nn(-c2ccccc2)c(N2CCCC2)c1/C=N/NC(=O)c1cc2ccccc2cc1O
[2]
  AC50: 11.2 µM [rising, partial curve]

## Cc1ccc(C)c(C2=CSC3=NCCN23)c1
[2]
  AC50: 8.91 µM [rising, partial curve]

## O=C(Nc1cccc(F)c1)N1CCN(C/C=C/c2ccccc2)CC1
[2]
  AC50: 14.1 µM [rising, single point]

## CC[C@@H](C)[C@H]1O[C@]2(CC[C@@H]1C)C[C@@H]1C[C@@H](C/C=C(\C)[C@@H](O[C@H]3C[C@H](OC)[C@@H](O[C@H]4C[C@H](OC)[C@@H](O)[C@H](C)O4)[C@H](C)O3)[C@@H](C)/C=C/C=C3\CO[C@@H]4[C@H](O)C(C)=C[C@@H](C(=O)O1)[C@]34O)O2
[1]
  AC50: 5.62 µM [falling, full curve]
[2]
  AC50: 6.31 µM [falling, full curve]

## CCOC(=O)c1sc(NC(=S)NC(=O)CC(C)C)cc1C
[1]
  AC50: 12.6 µM [rising, single point]

## CC(=NCCCn1ccnc1)c1c(C)[nH]n(-c2ccc([N+](=O)[O-])cc2)c1=O
[1]
  AC50: 20 µM [falling, partial curve, poor fit]

## CCOc1ccc(-c2cc(C(=O)NCc3ccccc3Cl)c3ccccc3n2)cc1
[1]
  AC50: 0.794 µM [falling, full curve, poor fit]
[2]
  AC50: 0.708 µM [falling, full curve, poor fit]

## S=C1NC=NC2N=CNC12 (centres undefined)
[1]
  AC50: 0.0562 µM [rising, full curve, poor fit]
[2]
  AC50: 0.0631 µM [rising, full curve, poor fit]

## Clc1ccc2ncc(-c3nnnn3-c3ccccc3)c(-c3ccccc3)c2c1
[1]
  AC50: 7.08 µM [falling, single point]
[2]
  AC50: 35.5 µM [falling, single point]

## Cc1ccc(N2CCN(C(=O)c3ccccc3F)CC2)c(C)c1
[2]
  AC50: 14.1 µM [rising, partial curve]

## C/C(=N/NS(=O)(=O)c1ccc(Cl)cc1)c1cccc(NC(=O)c2ccc(Cl)cc2Cl)c1
[1]
  AC50: 35.5 µM [falling, single point]
[2]
  AC50: 12.6 µM [falling, single point]

## COc1ccc(C(=O)Oc2cccc3cccnc23)cc1[N+](=O)[O-]
[1]
  AC50: 10 µM [falling, partial curve, poor fit]
[2]
  AC50: 12.6 µM [falling, partial curve, poor fit]

## Cc1ccc(-c2ccc(SCC(=O)N3CCCc4ccccc43)nn2)cc1
[1]
  AC50: 31.6 µM [rising, single point]
[2]
  AC50: 31.6 µM [rising, single point]

## COCCCNC(=O)c1ccc(-n2c(-c3ccccc3)cc3c2CCCC3)cc1
[1]
  AC50: 17.8 µM [falling, partial curve, poor fit]

## Cc1nnc(SCc2ccc(Cl)cc2)nc1/C=C/N(C)C
[1]
  AC50: 1.41 µM [falling, partial curve]
[2]
  AC50: 1.41 µM [falling, partial curve, poor fit]

## O=C(NC(=S)N1CCN(c2ccc(F)cc2)CC1)c1cccs1
[2]
  AC50: 3.55 µM [falling, single point]

## COc1ccc(O)c(/C=N/NC(=O)c2ccc(OCc3cccc(Br)c3)cc2)c1
[1]
  AC50: 3.98 µM [falling, full curve]

## OC[C@H]1O[C@@H]2O[C@H]3[C@H](O)[C@@H](O)[C@@H](O[C@H]4[C@H](O)[C@@H](O)[C@@H](O[C@H]5[C@H](O)[C@@H](O)[C@@H](O[C@H]6[C@H](O)[C@@H](O)[C@@H](O[C@H]7[C@H](O)[C@@H](O)[C@@H](O[C@H]8[C@H](O)[C@@H](O)[C@@H](O[C@H]1[C@H](O)[C@H]2O)O[C@@H]8CO)O[C@@H]7CO)O[C@@H]6CO)O[C@@H]5CO)O[C@@H]4CO)O[C@@H]3CO
[1]
  AC50: 1.41 µM [falling, partial curve, poor fit]
[2]
  AC50: 6.31 µM [rising, single point]
